No constants are given. Whether binding was seen depends on the method and setting. In cells and extracts the contact can be indirect. These calls come from enrichment with a bait or labelling near it, and not all partners need be listed. One block for each binder: values may come before it.
Assays:
Experiment in all cases: affinity purification with mass spectrometry; one-step StrepTactin affinity purification of the StHA-tagged bait from lysates of tetracycline-induced HEK293 cells (lysis buffer with 2 µM avidin), elution with 2.5 mM d-desthiobiotin, biological triplicates, filtered against the HASt-GFP control
[1] = molecular target: T1, RIOK1(kd)-StHA (human) (UniProt Q9BRS2)
T1 sequence: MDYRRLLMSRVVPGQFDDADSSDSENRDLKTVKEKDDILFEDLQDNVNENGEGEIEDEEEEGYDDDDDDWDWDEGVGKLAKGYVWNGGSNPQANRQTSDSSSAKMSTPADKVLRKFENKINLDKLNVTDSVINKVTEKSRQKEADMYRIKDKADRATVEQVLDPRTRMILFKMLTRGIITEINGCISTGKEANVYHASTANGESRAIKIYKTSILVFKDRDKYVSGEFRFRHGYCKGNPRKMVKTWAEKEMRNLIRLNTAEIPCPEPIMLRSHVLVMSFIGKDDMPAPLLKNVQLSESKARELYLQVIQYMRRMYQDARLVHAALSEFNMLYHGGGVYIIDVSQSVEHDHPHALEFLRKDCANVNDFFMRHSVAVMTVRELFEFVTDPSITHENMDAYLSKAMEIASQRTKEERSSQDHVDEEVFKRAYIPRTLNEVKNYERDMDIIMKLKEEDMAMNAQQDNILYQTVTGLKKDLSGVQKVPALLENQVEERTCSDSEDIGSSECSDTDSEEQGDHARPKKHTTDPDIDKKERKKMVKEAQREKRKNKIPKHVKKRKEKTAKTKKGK

By UniProt entry, the sequences of proteins in these tests, tags left out. Where a name states a change or a piece, a line headed by the entry shows the natural chain unless it says otherwise.
UniProt Q9Y5T5: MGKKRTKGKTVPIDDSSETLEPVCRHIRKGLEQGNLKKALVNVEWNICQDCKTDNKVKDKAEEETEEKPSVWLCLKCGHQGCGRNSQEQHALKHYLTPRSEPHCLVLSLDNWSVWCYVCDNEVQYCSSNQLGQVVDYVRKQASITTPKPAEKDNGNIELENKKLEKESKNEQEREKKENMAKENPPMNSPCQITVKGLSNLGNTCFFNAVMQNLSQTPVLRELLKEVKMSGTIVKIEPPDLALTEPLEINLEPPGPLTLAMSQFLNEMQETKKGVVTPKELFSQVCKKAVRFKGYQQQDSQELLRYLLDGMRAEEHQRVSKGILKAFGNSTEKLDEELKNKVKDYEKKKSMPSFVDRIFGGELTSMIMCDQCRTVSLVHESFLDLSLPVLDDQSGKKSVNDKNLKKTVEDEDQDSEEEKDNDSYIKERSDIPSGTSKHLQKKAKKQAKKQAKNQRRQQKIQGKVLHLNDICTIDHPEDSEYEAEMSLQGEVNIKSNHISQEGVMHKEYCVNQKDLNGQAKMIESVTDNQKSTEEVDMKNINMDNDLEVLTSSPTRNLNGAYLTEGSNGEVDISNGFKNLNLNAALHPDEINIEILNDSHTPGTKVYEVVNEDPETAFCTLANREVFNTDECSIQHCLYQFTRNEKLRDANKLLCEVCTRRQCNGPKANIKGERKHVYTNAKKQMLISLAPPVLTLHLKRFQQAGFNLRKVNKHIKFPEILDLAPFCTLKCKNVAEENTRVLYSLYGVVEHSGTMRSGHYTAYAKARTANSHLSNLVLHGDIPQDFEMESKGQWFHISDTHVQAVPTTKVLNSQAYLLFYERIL

[2] = molecular target: USP16(WT)-StHA (human) (UniProt Q9Y5T5)
[3] = molecular target: USP16(C205S)-StHA (human) (UniProt Q9Y5T5)

- binding [1]: binds
- binding [2]: binds
- binding [3]: binds
B1: TSR1 (protein, UniProt Q2NL82 1-804)
chain: MAAHRPGPLKQQNKAHKGGRHRGRGSAQRDGKGRLALKTLSKKVRKELSRVDQRHRASQLRKQKKEAVLAEKRQLGGKDGPPHQVLVVPLHSRISLPEAMQLLQDRDTGTVHLNELGNTQNFMLLCPRLKHRWFFTSARPGDLHVVLDMAKVADTILFLLDPLEGWDSTGDYCLSCLFAQGLPTYTLAVQGISGLPLKKQIDTRKKLSKAVEKRFPHDKLLLLDTQQEAGMLLRQLANQKQQHLAFRDRRAYLFAHAVDFVPSEENNLVGTLKISGYVRGQTLNVNRLLHIVGYGDFQMKQIDAPGDPFPLNPRGIKPQKDPDMAMEICATDAVDDMEEGLKVLMKADPGRQESLQAEVIPDPMEGEQTWPTEEELSEAKDFLKESSKVVKKVPKGTSSYQAEWILDGGSQSGGEGDEYEYDDMEHEDFMEEESQDESSEEEEEYETMTIGESVHDDLYDKKVDEEAEAKMLEKYKQERLEEMFPDEVDTPRDVAARIRFQKYRGLKSFRTSPWDPKENLPQDYARIFQFQNFTNTRKSIFKEVEEKEVEGAEVGWYVTLHVSEVPVSVVECFRQGTPLIAFSLLPHEQKMSVLNMVVRRDPGNTEPVKAKEELIFHCGFRRFRASPLFSQHTAADKHKLQRFLTADMALVATVYAPITFPPASVLLFKQKSNGMHSLIATGHLMSVDPDRMVIKRVVLSGHPFKIFTKMAVVRYMFFNREDVLWFKPVELRTKWGRRGHIKEPLGTHGHMKCSFDGKLKSQDTVLMNLYKRVFPKWTYDPYVPEPVPWLKSEISSTVPQGGME

- binding [2]: binds
- binding [3]: binds
B2: ENP1 (protein, UniProt Q13895 1-437)
chain: MPKFKAARGVGGQEKHAPLADQILAGNAVRAGVREKRRGRGTGEAEEEYVGPRLSRRILQQARQQQEELEAEHGTGDKPAAPRERTTRLGPRMPQDGSDDEDEEWPTLEKAATMTAAGHHAEVVVDPEDERAIEMFMNKNPPARRTLADIIMEKLTEKQTEVETVMSEVSGFPMPQLDPRVLEVYRGVREVLSKYRSGKLPKAFKIIPALSNWEQILYVTEPEAWTAAAMYQATRIFASNLKERMAQRFYNLVLLPRVRDDVAEYKRLNFHLYMALKKALFKPGAWFKGILIPLCESGTCTLREAIIVGSIITKCSIPVLHSSAAMLKIAEMEYSGANSIFLRLLLDKKYALPYRVLDALVFHFLGFRTEKRELPVLWHQCLLTLVQRYKADLATDQKEALLELLRLQPHPQLSPEIRRELQSAVPRDVEDVPITVE

- binding [2]: binds weakly
- binding [3]: binds weakly
B3: NOP14 (protein, UniProt P78316 1-857)
chain: MAKAKKVGARRKASGAPAGARGGPAKANSNPFEVKVNRQKFQILGRKTRHDVGLPGVSRARALRKRTQTLLKEYKERDKSNVFRDKRFGEYNSNMSPEEKMMKRFALEQQRHHEKKSIYNLNEDEELTHYGQSLADIEKHNDIVDSDSDAEDRGTLSAELTAAHFGGGGGLLHKKTQQEGEEREKPKSRKELIEELIAKSKQEKRERQAQREDALELTEKLDQDWKEIQTLLSHKTPKSENRDKKEKPKPDAYDMMVRELGFEMKAQPSNRMKTEAELAKEEQEHLRKLEAERLRRMLGKDEDENVKKPKHMSADDLNDGFVLDKDDRRLLSYKDGKMNVEEDVQEEQSKEASDPESNEEEGDSSGGEDTEESDSPDSHLDLESNVESEEENEKPAKEQRQTPGKGLISGKERAGKATRDELPYTFAAPESYEELRSLLLGRSMEEQLLVVERIQKCNHPSLAEGNKAKLEKLFGFLLEYVGDLATDDPPDLTVIDKLVVHLYHLCQMFPESASDAIKFVLRDAMHEMEEMIETKGRAALPGLDVLIYLKITGLLFPTSDFWHPVVTPALVCLSQLLTKCPILSLQDVVKGLFVCCLFLEYVALSQRFIPELINFLLGILYIATPNKASQGSTLVHPFRALGKNSELLVVSAREDVATWQQSSLSLRWASRLRAPTSTEANHIRLSCLAVGLALLKRCVLMYGSLPSFHAIMGPLQALLTDHLADCSHPQELQELCQSTLTEMESQKQLCRPLTCEKSKPVPLKLFTPRLVKVLEFGRKQGSSKEEQERKRLIHKHKREFKGAVREIRKDNQFLARMQLSEIMERDAERKRKVKQLFNSLATQEGEWKALKRKKFKK

- binding [2]: binds
- binding [3]: binds
B4: LTV1 (protein, UniProt Q96GA3 1-475)
chain: MPHRKKKPFIEKKKAVSFHLVHRSQRDPLAADESAPQRVLLPTQKIDNEERRAEQRKYGVFFDDDYDYLQHLKEPSGPSELIPSSTFSAHNRREEKEETLVIPSTGIKLPSSVFASEFEEDVGLLNKAAPVSGPRLDFDPDIVAALDDDFDFDDPDNLLEDDFILQANKATGEEEGMDIQKSENEDDSEWEDVDDEKGDSNDDYDSAGLLSDEDCMSVPGKTHRAIADHLFWSEETKSRFTEYSMTSSVMRRNEQLTLHDERFEKFYEQYDDDEIGALDNAELEGSIQVDSNRLQEVLNDYYKEKAENCVKLNTLEPLEDQDLPMNELDESEEEEMITVVLEEAKEKWDCESICSTYSNLYNHPQLIKYQPKPKQIRISSKTGIPLNVLPKKGLTAKQTERIQMINGSDLPKVSTQPRSKNESKEDKRARKQAIKEERKERRVEKKANKLAFKLEKRRQEKELLNLKKNVEGLKL

- binding [1]: binds
- binding [2]: binds
- binding [3]: binds
B5: NOB1 (enzyme, UniProt Q9ULX3 1-412)
chain: MAPVEHVVADAGAFLRHAALQDIGKNIYTIREVVTEIRDKATRRRLAVLPYELRFKEPLPEYVRLVTEFSKKTGDYPSLSATDIQVLALTYQLEAEFVGVSHLKQEPQKVKVSSSIQHPETPLHISGFHLPYKPKPPQETEKGHSACEPENLEFSSFMFWRNPLPNIDHELQELLIDRGEDVPSEEEEEEENGFEDRKDDSDDDGGGWITPSNIKQIQQELEQCDVPEDVRVGCLTTDFAMQNVLLQMGLHVLAVNGMLIREARSYILRCHGCFKTTSDMSRVFCSHCGNKTLKKVSVTVSDDGTLHMHFSRNPKVLNPRGLRYSLPTPKGGKYAINPHLTEDQRFPQLRLSQKARQKTNVFAPDYIAGVSPFVENDISSRSATLQVRDSTLGAGRRRLNPNASRKKFVKKR
